Measurements as given in patent US20040077828A1.
Results are given in words; binding and its absence hold for the method and conditions named. Some entries that bind do so weakly or less than the wild type. One block for each binder: values may come before it.

Assays:
[1] = biological target: T1, recombinant soluble RANKL (PeproTech) (Homo sapiens (Human)) (UniProt O14788); experiment: ELISA
T1 sequence: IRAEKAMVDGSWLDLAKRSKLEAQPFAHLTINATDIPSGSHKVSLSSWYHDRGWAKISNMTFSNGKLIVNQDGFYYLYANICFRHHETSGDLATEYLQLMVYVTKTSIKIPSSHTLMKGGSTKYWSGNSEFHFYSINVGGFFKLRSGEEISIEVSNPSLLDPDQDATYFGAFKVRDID

[2] = biological target: T2, bacterially expressed CRD of sFRP-1 (human) (UniProt Q8N474); experiment: ELISA, soluble RANKL on CRD-coated wells, Scatchard plot
T2 sequence: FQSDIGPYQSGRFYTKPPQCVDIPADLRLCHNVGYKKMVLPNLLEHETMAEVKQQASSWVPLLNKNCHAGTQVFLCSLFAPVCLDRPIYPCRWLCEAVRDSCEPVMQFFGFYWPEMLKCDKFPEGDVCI

[3] = biological target: T2, bacterially expressed CRD of sFRP-1 (human); experiment: ELISA, soluble RANKL on coated wells
[4] = biological target: T3, Δ2-H/M; experiment: ELISA: wells coated with sFRP-1 or derivative, incubated with soluble RANKL, bound RANKL detected; triplicates
T3 sequence (single chain): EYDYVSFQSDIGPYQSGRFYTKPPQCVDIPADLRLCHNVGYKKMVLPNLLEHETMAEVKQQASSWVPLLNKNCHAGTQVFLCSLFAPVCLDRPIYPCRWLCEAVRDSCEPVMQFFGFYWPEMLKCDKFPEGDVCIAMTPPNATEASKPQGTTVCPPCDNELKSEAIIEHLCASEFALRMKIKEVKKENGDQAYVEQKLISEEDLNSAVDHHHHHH

[5] = biological target: T4, human sFRP-Δ1-M/H (Δ1 derivative of sFRP-1) (human); experiment: as above
T4 sequence: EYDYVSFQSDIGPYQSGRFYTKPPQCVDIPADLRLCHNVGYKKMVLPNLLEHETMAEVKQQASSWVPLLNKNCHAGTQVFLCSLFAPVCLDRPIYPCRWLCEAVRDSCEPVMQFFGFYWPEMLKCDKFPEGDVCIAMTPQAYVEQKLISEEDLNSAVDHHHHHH

[6] = biological target: T5, human sFRP-Δ3-M/H (Δ3 derivative of sFRP-1) (human); experiment: as above
T5 sequence: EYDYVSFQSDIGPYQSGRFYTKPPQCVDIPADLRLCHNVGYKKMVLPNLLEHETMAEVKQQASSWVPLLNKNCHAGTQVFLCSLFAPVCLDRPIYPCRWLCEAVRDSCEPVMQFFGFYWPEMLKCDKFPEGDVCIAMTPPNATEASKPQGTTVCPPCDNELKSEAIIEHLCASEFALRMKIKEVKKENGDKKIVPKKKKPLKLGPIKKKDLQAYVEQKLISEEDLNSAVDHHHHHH

[7] = biological target: T2, bacterially expressed CRD of sFRP-1 (human); experiment: ELISA: soluble RANKL on wells coated with bacterially expressed CRD of sFRP-1
[8] = biological target: T4, human sFRP-Δ1-M/H (Δ1 derivative of sFRP-1) (human); experiment: ELISA, soluble RANKL on wells coated with sFRP-1 deletion mutants (FIG. 12)
[9] = biological target: T2, bacterially expressed CRD of sFRP-1 (human); experiment: ELISA, soluble RANKL on CRD-coated wells

binding [1]: binds
B1: recombinant mouse sFRP-2 (protein, UniProt P97299 25-295, looked up)
chain: LFLFGQPDFSYKRSNCKPIPANLQLCHGIEYQNMRLPNLLGHETMKEVLEQAGAWIPLVMKQCHPDTKKFLCSLFAPVCLDDLDETIQPCHSLCVQVKDRCAPVMSAFGFPWPDMLECDRFPQDNDLCIPLASSDHLLPATEEAPKVCEACKTKNEDDNDIMETLCKNDFALKIKVKEITYINRDTKIILETKSKTIYKLNGVSERDLKKSVLWLKDSLQCTCEEMNDINAPYLVMGQKQGGELVITSVKRWQKGQREFKRISRSIRKLQC

binding [2]: binds
binding [3]: binds
binding [4]: binds
binding [5]: binds
binding [6]: binds
binding [7]: binds
binding [8]: binds
binding [9]: binds
B2: recombinant soluble RANKL (PeproTech) (ligand)
chain: T1 sequence
